Some of the results follow. Further columns of the screen follow, without active or inactive calls. Most of these compounds were active or inconclusive in the main read-out, so they are no random draw. Potencies come from curve fits of mixed quality, noted in brackets. Where a SMILES comes first, the peptide text is derived from it. The star is where a group is joined. Boc = CC(C)(C)OC(=O)*

From PubChem BioAssay AID2685 (National Center for Advancing Translational Sciences (NCATS), 2010) come the findings set out here.

The nature of this assay: qHTS Assay for Lipid Storage Modulators in Drosophila S3 Cells.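 On cell number change: cells counted by Cell Tracker Red CMTPX staining in the red channel.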 The following applies: BODIPY lipid droplet fluorescence, 18-24 h; for cell number change: measured here: cell count max response, cells fed with added oleic acid. The method in brief: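 Laser-scanning cytometry quantifies lipid droplet accumulation (500–530 nm total intensity; droplet/cell object ratio) in oleic acid-fed (400 uM added) Drosophila S3 cells treated with a concentration series. 20 uM Triacsin C defined 100% inhibition.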
In general terms: qHTS replaces the single test concentration by a dilution series.

Setting [1] is: measured here: lipid fluorescence (Fed channel) AC50, cells fed with added oleic acid.
[2] abbreviates: measured here: cell number channel AC50, cells fed with added oleic acid.

Turning to `Cc1ccc(C(=O)CN2C(=O)C(=O)N(Cc3ccccc3)C2=O)cc1`, the cell number change was -14.3%. Further, under setting [1], the AC50 is 7.31 µM [falling, partial curve, poor fit].

Take `COc1cccc(OC)c1C(=O)Nc1ccc(S(=O)(=O)Nc2cc(C)nc(C)n2)cc1`: the concentration at half-maximal activity (AC50) is 0.92 µM [falling, partial curve] under setting [2] and 6.51 µM [falling, partial curve] under setting [1].

For `O=C(CSc1n[nH]c(-c2ccncc2)n1)Nc1ccc(Cl)c(Cl)c1`, the cell number change was determined as 2.1%. Moreover, under setting [1], the AC50 was 0.291 µM [rising, full curve].

As to `COC(=O)CCCNC(=O)c1ccc2oc(CCCc3ccccc3)nc2c1`, the cell number change was -2.47%. Moreover, the AC50 under setting [1] is 29.1 µM [falling, single point].

In the case of `O=C(CCN1C(=O)c2ccc([N+](=O)[O-])cc2C1=O)Nc1ccccc1C(=O)O`, the cell number change is 2.56%. Besides, the AC50 under setting [1] is 32.6 µM [rising, single point].

For `CC(C)(C)OC(=O)N1CCCC1C(=O)NC(Cc1ccccc1)C(=O)O` (stereo not drawn) (Boc-Pro-Phe-OH; configuration not given here), the cell number change was -25.8%. Further, the AC50 under setting [2] was 0.231 µM [falling, full curve, poor fit]. Also, the AC50 under setting [1] was 1.3 µM [falling, partial curve].

With `O=C(N/N=C\c1ccc(Cl)s1)c1cccs1`, the cell number change amounted to 32.9%. For the same compound, under setting [2], the AC50 was 3.66 µM [rising, full curve]. The concentration at half-maximal activity (AC50) under setting [1] was 18.4 µM [rising, partial curve].

As for `CCOC(=O)CSc1ncc(-c2ccccc2)nn1`, the cell number change was -46.7%. Besides, the AC50 under setting [2] is 32.6 µM [falling, single point]. Further, the AC50 under setting [1] was 0.092 µM [falling, full curve, poor fit].

Take `Cc1ccc(CSC2=NCCN2S(=O)(=O)c2ccc(F)cc2)cc1`: the cell number change was -20.5%. In addition, the AC50 under setting [1] was 18.4 µM [falling, partial curve].

In the case of `Fc1ccc(OCc2nn[nH]n2)c(F)c1`, the cell number change was -9.97%. In addition, the concentration at half-maximal activity (AC50) under setting [1] is 5.8 µM [rising, single point].

`O=C(COC(=O)/C=C/c1ccc(Cl)cc1)Nc1ccc2c(c1)OCCO2`: the cell number change was found to be 8.61%.

Regarding `CCCC(=O)Nc1nc(-c2ccccc2)ns1`, the cell number change is 0.115%. Under setting [1], the concentration at half-maximal activity (AC50) was 1.16 µM [rising, full curve].

Regarding `Cc1ccn2cc(CNS(=O)(=O)c3ccc4c(c3)OCCO4)nc2c1`, the AC50 under setting [1] was 6.51 µM [falling, single point].

`CC(=O)Oc1cccc(N2C(=O)C3C(C2=O)C2C=CC3C23CC3)c1` (stereo unspecified): the cell number change was -4.89%. In addition, the concentration at half-maximal activity (AC50) under setting [1] is 6.51 µM [rising, single point].

Turning to `Cc1ccc(S(=O)(=O)N2CCc3ccccc3C2CC(=O)O)cc1` (stereo unspecified), the cell number change was found to be 3.42%. In addition, the concentration at half-maximal activity (AC50) under setting [1] was 0.411 µM [rising, single point].

Turning to `O=C1CC(c2ccccc2)CC2=C1C(c1ccccn1)Nc1ccccc1N2` (stereo unspecified), the cell number change turned out to be 34.9%. The AC50 under setting [2] was 29.1 µM [rising, single point]. Besides, the half-maximal activity concentration (AC50) under setting [1] is 29.1 µM [rising, single point].

For `COc1cc(NC(=O)COC(=O)CO/N=C(\C)c2ccc3c(c2)OCO3)cc(OC)c1`, the cell number change is -14.4%. Under setting [1], the AC50 is 0.731 µM [falling, single point].

With `O=C(Nc1ccc(Cl)c(Cl)c1)Nc1ccon1`, under setting [1], the AC50 was 15.8 µM [falling, partial curve].

Consider `O=C(Cc1ccccc1F)NCC1(N2CCOCC2)CCCCC1`, for which the cell number change turned out to be 5.81%. Also, the AC50 under setting [1] was 2.59 µM [falling, partial curve, poor fit].

Take `Cc1ccc(N2C(=O)NC(C(F)(F)F)(C(F)(F)F)C3=C2CC(C)(C)CC3=O)cc1`: the concentration at half-maximal activity (AC50) under setting [1] is 1.46 µM [falling, partial curve].

With `N#CCC(=O)NCC1(c2ccccc2)CCCC1`, the cell number change worked out at 14.6%. In addition, the AC50 under setting [1] is 29.1 µM [falling, single point].

Consider `COc1cc(C(C)=O)ccc1Oc1ncnc2c1cnn2-c1ccccc1`, for which the cell number change worked out at 18%. The half-maximal activity concentration (AC50) under setting [1] is 1.46 µM [rising, partial curve, poor fit].

As to `C[C@@H]1CC=C[C@H]2[C@H]1C(=O)N(Cc1ccccc1)[C@H]2c1cccc([N+](=O)[O-])c1`, the cell number change was -3.95%. The concentration at half-maximal activity (AC50) under setting [1] is 2.31 µM [rising, single point].

On to `CC(=O)NC1=NN(C(C)=O)C2(CCCC2)S1`, for which the cell number change was -150%. In addition, under setting [2], the AC50 was 29.1 µM [falling, single point]. The concentration at half-maximal activity (AC50) under setting [1] was 29.1 µM [falling, single point].

With `O=C(CCC(=O)Nc1nnc(C2CCCCC2)s1)NCc1cccs1`, the cell number change stood at 23.2%. Moreover, the AC50 under setting [1] is 29.1 µM [rising, single point].

Consider `CN(Cc1nc2ccccc2c(=O)[nH]1)C(=O)c1cc(C2CC2)nn1-c1ccccc1`, for which the cell number change was -52.6%. Also, the AC50 under setting [2] is 29.1 µM [falling, single point]. Under setting [1], the AC50 is 0.00461 µM [rising, full curve, poor fit].

In the case of `C=CCN(c1ccccc1Cl)S(=O)(=O)c1cc(C(=O)N2CCCC2)ccc1Cl`, the cell number change was -0.107%.

As for `NC(=O)c1ccc(NC(=O)CSc2nnc(-c3cccnc3)n2Cc2ccco2)cc1`, the cell number change came out at 12.5%.

For `O=C(COC(=O)/C=C/c1ccc(Br)o1)NC1CCCCC1`, the cell number change was 13.3%. Besides, the half-maximal activity concentration (AC50) under setting [1] was 16.4 µM [rising, partial curve].

In the case of `CCN1C(=O)[C@H]2[C@@H](c3ccc(-c4ccc(OC)cc4)c(OC)c3)N[C@@](C)(C(=O)OC)[C@H]2C1=O`, the cell number change amounted to 17.7%. Also, the AC50 under setting [1] is 0.0517 µM [rising, full curve, poor fit].

As to `N#CCN1C(=O)NC2(CCCc3sccc32)C1=O` (stereo unspecified), the cell number change amounted to 1.67%. The AC50 under setting [1] is 0.116 µM [rising, single point].

`COc1ccc(N(CC(=O)NCc2ccccc2OC)S(=O)(=O)c2ccc(C)cc2)cc1Cl`: the cell number change was -19.6%.

As to `O=C(COc1ccccc1)NC1CCSC1=O` (stereo unspecified), the cell number change was -43.6%.

On to `O=S(=O)(c1cccc(Cl)c1Cl)N1CCCCC1`, for which the cell number change is -181%.

Take `O=C(O)c1ccccc1SCc1ccc2c(c1)OCO2`: the cell number change is 60.2%. Further, the AC50 under setting [2] was 23.1 µM [rising, single point]. In addition, the AC50 under setting [1] was 16.4 µM [rising, partial curve].

As for `COc1ccc(CNCCC(c2ccc(OC)cc2)c2ccccc2OC)cc1` (stereo unspecified), the cell number change is -49.4%. Also, the half-maximal activity concentration (AC50) under setting [2] was 36.6 µM [falling, partial curve, poor fit]. Besides, the AC50 under setting [1] is 16.4 µM [falling, partial curve, poor fit].

For the compound `CCN(CC)CCn1nc2c3c(cccc3c1=O)-c1ccccc1-2`, the cell number change was -3.5%.

On to `N#CC1=C2SCN(c3ccccc3)CN2C(=O)CC1c1cccs1` (stereo unspecified), for which the cell number change worked out at 3.56%. For the same compound, the AC50 under setting [1] is 0.731 µM [rising, full curve, poor fit].

`Cc1nn(C)c(C)c1CNC(=O)c1cnn2c1NC(c1ccccc1)CC2C(F)(F)F` (stereo unspecified): the cell number change was -9.89%.

With `CC1CCN(C(=O)CN(c2cccc(F)c2)S(C)(=O)=O)CC1`, the cell number change was -20.2%. Also, under setting [1], the half-maximal activity concentration (AC50) is 0.00461 µM [falling, full curve, poor fit].

For the compound `N#Cc1ccc(OCc2cccc(S(=O)(=O)N3CCOCC3)c2)cc1`, the cell number change came to 164%. Further, the concentration at half-maximal activity (AC50) under setting [2] is 29.1 µM [rising, single point]. Further, the AC50 under setting [1] was 29.1 µM [rising, partial curve].

For `c1ccc(CCn2c(C3CC3)nc3ccccc32)cc1`, the AC50 under setting [1] is 0.146 µM [rising, full curve, poor fit].

`CCN(Cc1ccccc1)C(c1cccc(C#N)c1)c1nnnn1C(C)(C)C` (stereo unspecified): the cell number change came to 139%. Also, the AC50 under setting [2] was 18.4 µM [rising, partial curve]. Under setting [1], the AC50 is 20.6 µM [rising, partial curve].

As to `CC(C(=O)O)n1nc(-c2ccccc2)c2ccccc21` (stereo unspecified), the cell number change is -4.23%. The concentration at half-maximal activity (AC50) under setting [2] was 0.00461 µM [falling, full curve, poor fit].

For the compound `CCn1c(SCC(=O)N2CCOCC2)nc(O)cc1=O`, the cell number change was 11.4%. Moreover, under setting [1], the half-maximal activity concentration (AC50) was 0.00461 µM [rising, full curve, poor fit].

Consider `O=C(Nc1cccc(F)c1)c1ccc2c(c1)OCCO2`, for which the cell number change was found to be 2.63%.

Regarding `CCC(C)NC(=O)Nc1ccc(F)c(Cl)c1` (stereo unspecified), the cell number change was -20%. Besides, the half-maximal activity concentration (AC50) under setting [2] was 0.291 µM [falling, partial curve, poor fit]. Also, the AC50 under setting [1] is 6.51 µM [falling, partial curve, poor fit].

Take `O=C(NCCCn1ccnc1)c1nc(Cn2cc(Br)cn2)no1`: the cell number change was -23%.

As for `CC(=O)c1ccc(-n2nnnc2SCC(=O)Nc2sc(C)c(C)c2C#N)cc1`, the cell number change came to 4.27%. Further, the concentration at half-maximal activity (AC50) under setting [1] was 0.461 µM [rising, full curve, poor fit].

Regarding `COc1ccc(-c2cc(C(F)(F)F)nc(SCCC(=O)Nc3cc(C)on3)n2)cc1`, the cell number change was -43.4%. Also, the AC50 under setting [2] was 29.1 µM [falling, single point]. In addition, the concentration at half-maximal activity (AC50) under setting [1] is 6.51 µM [rising, single point].

`CCOc1c(Br)cc(/C=C2\N=C(C)OC2=O)cc1Br`: the concentration at half-maximal activity (AC50) under setting [2] was 0.731 µM [falling, single point].

Regarding `CCOC(=O)N1CCN(S(=O)(=O)c2ccc(C(=O)Nc3sc4c(c3C#N)CC(C)(C)NC4(C)C)cc2)CC1`, the cell number change amounted to 36.3%. Besides, the half-maximal activity concentration (AC50) under setting [2] was 0.0651 µM [rising, full curve, poor fit].

For `CCCS(=O)(=O)c1c(S(=O)(=O)CCC)c2c(N)cccn2c1C(=O)c1ccccc1`, the AC50 under setting [1] was 6.51 µM [rising, single point].

Turning to `CN(C)/C=N/S(=O)(=O)c1ccc(Cl)cc1`, the cell number change is -4.53%.

Regarding `CC1CCN(S(=O)(=O)c2ccc(S(=O)(=O)N3CCN4CCCC4C3)cc2)CC1` (stereo unspecified), the cell number change is -49.7%. Further, the AC50 under setting [2] is 4.11 µM [falling, full curve]. Further, the AC50 under setting [1] was 0.326 µM [falling, full curve, poor fit].

On to `CC(=O)/C(=N\Nc1cccc(Cl)c1)Sc1cccc2cccnc12`, for which the cell number change is 7.18%. Under setting [1], the half-maximal activity concentration (AC50) was 0.461 µM [rising, partial curve, poor fit].

In the case of `CC(=O)c1c(C)[nH]c(C(=O)OCC(=O)Nc2ncc(Cl)c(C)c2Cl)c1C`, the cell number change was -13.2%. For the same compound, under setting [1], the AC50 was 7.31 µM [rising, partial curve].

`COc1cccc(NC(=O)Nc2ccc3nsnc3c2)c1`: the cell number change is 10.3%.

In the case of `CCn1nnc(NC(=O)COc2cc(C)ccc2C(C)C)n1`, the AC50 under setting [1] is 6.51 µM [falling, single point].

On to `CSc1nc2sc3c(c2c(=O)n1C)CCC3`, for which the cell number change stood at 12.4%.

For `COc1cc(OC)cc(-c2cc(N3C(=O)Nc4ccccc4N3O)n[nH]2)c1`, the cell number change is 30.2%. For the same compound, the concentration at half-maximal activity (AC50) under setting [2] is 29.1 µM [rising, single point]. The AC50 under setting [1] is 10.3 µM [rising, partial curve].

For orientation: AC50 means the midpoint of the concentration-response curve, whichever way the signal moves. Read a high AC50 as weaker potency.
